Laboratory results taken from PMC3903613.
Results are given in words; binding and its absence hold for the method and conditions named. Binding seen in cells or lysates may run through a third protein. Some entries that bind do so weakly or less than the wild type.

Chains of the proteins cited; added tags and fusions are not shown.
UniProt P41164: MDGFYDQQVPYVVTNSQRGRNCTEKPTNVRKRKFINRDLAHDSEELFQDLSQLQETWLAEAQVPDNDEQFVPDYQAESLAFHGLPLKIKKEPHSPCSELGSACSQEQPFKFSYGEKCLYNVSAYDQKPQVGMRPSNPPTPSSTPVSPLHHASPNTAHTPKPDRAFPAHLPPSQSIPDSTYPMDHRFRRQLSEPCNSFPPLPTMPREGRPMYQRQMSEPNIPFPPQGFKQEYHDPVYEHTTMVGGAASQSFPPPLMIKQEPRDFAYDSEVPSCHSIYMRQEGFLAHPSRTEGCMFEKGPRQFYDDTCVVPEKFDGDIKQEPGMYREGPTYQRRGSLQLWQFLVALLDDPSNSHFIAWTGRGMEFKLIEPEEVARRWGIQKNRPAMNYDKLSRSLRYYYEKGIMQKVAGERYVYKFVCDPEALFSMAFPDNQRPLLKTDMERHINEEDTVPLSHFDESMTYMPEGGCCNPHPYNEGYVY

Biological target: Endogenous mouse ETV1 (mouse (endogenous in AB-1 embryonic stem cells)) (UniProt P41164)
Assay: co-IP; endogenous Pkp3 or ETV1 immuno-precipitated from nuclear extracts of AB-1 mouse embryonic stem cells; 200 mM NaCl, washes with 0.5% Triton X-100, 0.5% sodium deoxycholate, 0.1% SDS; blot for Pkp3 and ETV1

B1: Endogenous mouse Pkp3 (protein, UniProt Q9QY23 1-797)
chain: MQEGNFLLSALQPETGVCSLALPSDLQLDRRGAEGPEADRLRAARVQEQVRARLLQLGQQSRHNGSAELDGSAESARGMPRGQYHTMQTGFSSRSQGMSGDKTSTFRPIAKPAYSPASWSSRSAVDLTCSRRLSSAHNGGSAFGAVGYGGTQPTPPMPTRPVSFHERGGAASRADYDTLSLRSLRLGPGGLDDRYSVVSEQLEPAAASTYRAYAYERQASSGSSRAGGLDWPEATEGPPSRTIRAPAMRTLQRFQSSHRSRGGTGSVSGAGLEPVARAPSVRSLSLSLADSGHLPDVRGLDSYTGHRTLQRLSSGFDDIDLPSAVKYLMASDPNLQVLGAAYIQHRCYSDAAAKKQARSLQAVPRLVKLFNHANQEVQRHATGAMRNLIYDNVDNKLALVEENGIFELLRTLREQDDELRKNVTGILWNLSSSDHLKDRLARDTLEQLTDLVLSPLSGAGGPPLIQQNASEAEIFYNATGFLRNLSSASQATRQKMRECHGLVDALVTYINHALDVGKCEDKSVENAVCVLRNLSYRLYDEMPPSALQRLEGRGRRDMAGAPPGEMVGCFTPQSRRLRELPLTADALTFAEVSKDPKGLEWLWSPQIVGLYNRLLQRCELNRHTTEAAAGALQNITAGDRRWAGVLSRLALEQERILNPLLDRVRTADHNQLRSLTGLIRNLSRNARNKDEMSTKVVSHLIEKLPGSVGEKCPPAEVLVNIIAVLNNLVVASPIAARDLLYFDGLRKLVFIKKKRDSPDSEKSSRAASSLLANLWQYSKLHRDFRAKGYRKEDFLGP
  binding: binds
